# Results reported in PubChem BioAssay (NCATS).
# Values joined by “and” are separate entries in the source; they are usually repeats but may differ in a detail not shown here. Equal values may be shown once. Some of the results follow.
# Key:
# [1] = qHTS assay for small molecule agonists of retinoid X receptor alpha signaling (AID 588544); conditions: HEK293T RXRa-UAS-bla, beta-lactamase reporter, 18 h; 530 nm emission
# [2] = qHTS drug screen for cell cycle checkpoint inhibitors in PARPi-resistant BRCA-mutant ovarian cancer cell lines. (AID 1963452); conditions: PEO1/OlaR viability, CellTiter-Glo luminescence, 96 h, stronger effect = lower value
# Procedure, shortened: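 PEO1, PEO4 and PEO1/OlaR ovarian cancer cells, 600 per well, exposed 96 h at 37C to a dilution series. Viability read by CellTiter-Glo luminescence, normalized to DMSO and empty wells; activity summarized as Z-AUC.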
# [3] = qHTS for identification of novel therapeutic agents for treatment of microphthalmiaassociated transcription factor (MiT) renal cell carcinoma (RCC) (AID 1963991); conditions: TFE3-RCC UOK109 viability, CellTiter-Glo, 48 h, stronger effect = lower value;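 further: curves scaled with 100% = DMSO viability and 0% = empty wells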
# From the text: PI: Marston Linehan Ph.D.
# Urologic Oncology Branch, Center for Cancer Research (CCR)
# National Cancer Institute (NCI), National Institute of Health (NIH), Bethesda, Maryland
# MiT-Renal Cell Carcinoma (RCC) is characterized by genomic translocations involving microphthalmia-associated transcription factor (MiT) family members TFE3, TFEB, or MITF. MiT-RCC represents a specific subtype of sporadic RCC that is predominantly seen in young patients and can present with heterogeneous histological features making diagnosis challenging. Moreover, the disease biology of this aggressive cancer is poorly understood and there is no accepted standard of care therapy for patients with advanced disease. Tumor-derived cell lines have been established from human TFE3-RCC providing useful models for preclinical studies. TFE3-RCC tumor derived cell lines and their tissues of origin were characterized by IHC and gene expression analyses. An unbiased high-throughput drug screen was performed to identify novel therapeutic agents for treatment of MiT-RCC. […] The results of a high-throughput small molecule drug screen utilizing three TFE3-RCC tumor-derived cell lines identified five classes of agents with potential pharmacological efficacy, including inhibitors of phosphoinositide-3-kinase (PI3K) and mechanistic target of rapamycin (mTOR), and several additional agents, including the transcription inhibitor Mithramycin A. Upregulation of the cell surface marker GPNMB, a specific MiT transcriptional target, was confirmed in TFE3-RCC and evaluated as a therapeutic target using the GPNMB-targeted antibody-drug conjugate CDX-011. […]
# 6; Detection; Luminescence; ViewLux plate reader (PerkinElmer). […]
# 1. Quantitative high-throughput screening (qHTS) of 1912 pharmacologically defined small molecule compounds was conducted on three TFE3-fusion cell lines bearing three different fusion partners (UOK109, UOK124, UOK145). […]
# 4. Viability was assessed by adding 3uL of CellTiter-Glo detection reagent (Promega). […]
# 6. Luminescence was measured on a ViewLux plate reader (PerkinElmer). […]
structure (smiles),measurement,setting,value
CCOP(=O)(Cl)Cl,max response,[1],-0.493% and -13.6%
ClCCOP(OCCCl)OCCCl,max response,[1],-18.7%
CCOC(=O)C(=O)CBr,Z-AUC,[2]; measured here: PEO1 parental Z-AUC,0.611
same,Z-AUC,[2]; measured here: PEO4 Z-AUC,0.444
same,z-score,[3]; measured here: UOK109 Z-AUC,1
same,z-score,[3]; measured here: UOK124 Z-AUC,1.29
same,z-score,[3]; measured here: UOK145 Z-AUC,-0.0696
